# Read-outs that look alike come from different tables or passages of the source.
# Tests used:
# [1] = in vivo; parameters: species or system mice; conditions: mouse, blood, po, read-out: Blood level; for concentration at 0.5 h: 30 min; for concentration at 1 h: 60 min; for concentration at 2 h: 120 min
# Text: Compounds prepared in 5% Propylene Glycol & TweenCMC-H2 O.
# Values in parentheses are 95% confidence limits.
# Assay Organism: E. coli A9675 (pH = 6.6, 0.1% inoculum)
# [2] = Blood levels after oral administration to mice (Table 4); format: in vivo; conditions: mouse, 100 mg/kg, assay organism E. coli A-9675, read-out: Blood level
# [3] = 25 mg/kg, Test 1, oral 25 mg/kg
# [4] = 25 mg/kg, Test 3, oral 25 mg/kg
# [5] = 50 mg/kg, Test 1, oral 50 mg/kg
# [6] = 50 mg/kg, Test 3, oral 50 mg/kg
# [7] = 100 mg/kg, Test 1, oral 100 mg/kg
# [8] = 100 mg/kg, Test 3, oral 100 mg/kg
compound,measurement,setting,value
"CC1(CCl)C(C(=O)O)N2C(=O)CC2S1(=O)=O (stereo not drawn) [BL-P2013, Potassium 2β-Chloromethyl-2α-methylpenam-3α-carboxylate Sulfone]",concentration at […],"[1]; 25 mg/kg, Test 1, oral 25 mg/kg, 15 min",1300 ng/mL
same,concentration at 0.5 h,[1]; [3],1400 ng/mL
same,concentration at 1 h,[1]; [3],1000 ng/mL
same,concentration at […],"[1]; 25 mg/kg, Test 1, oral 25 mg/kg, 90 min",< 600 ng/mL
same,concentration at 2 h,[1]; [3],< 600 ng/mL
same,concentration at […],"[1]; 25 mg/kg, Test 1, oral 25 mg/kg, 150 min",< 600 ng/mL
same,concentration at […],"[1]; 25 mg/kg, Test 3, oral 25 mg/kg, 15 min",1400 ng/mL
same,concentration at 0.5 h,[1]; [4],2000 ng/mL
same,concentration at 1 h,[1]; [4],1400 ng/mL
same,concentration at […],"[1]; 25 mg/kg, Test 3, oral 25 mg/kg, 90 min",1200 ng/mL
same,concentration at 2 h,[1]; [4],< 1200 ng/mL
same,concentration at […],"[1]; 25 mg/kg, Test 3, oral 25 mg/kg, 150 min",< 1200 ng/mL
same,concentration at […],"[1]; 50 mg/kg, Test 1, oral 50 mg/kg, 15 min",2200 ng/mL
same,concentration at 0.5 h,[1]; [5],2600 ng/mL
same,concentration at 1 h,[1]; [5],1900 ng/mL
same,concentration at […],"[1]; 50 mg/kg, Test 1, oral 50 mg/kg, 90 min",1500 ng/mL
same,concentration at 2 h,[1]; [5],1100 ng/mL
same,concentration at […],"[1]; 50 mg/kg, Test 1, oral 50 mg/kg, 150 min",800 ng/mL
same,concentration at […],"[1]; 50 mg/kg, Test 3, oral 50 mg/kg, 15 min",4600 ng/mL
same,concentration at 0.5 h,[1]; [6],5500 ng/mL
same,concentration at 1 h,[1]; [6],3600 ng/mL
same,concentration at […],"[1]; 50 mg/kg, Test 3, oral 50 mg/kg, 90 min",3100 ng/mL
same,concentration at 2 h,[1]; [6],2000 ng/mL
same,concentration at […],"[1]; 50 mg/kg, Test 3, oral 50 mg/kg, 150 min",1100 ng/mL
same,concentration at […],"[1]; 100 mg/kg, Test 1, oral 100 mg/kg, 15 min",3400 ng/mL
same,concentration at 0.5 h,[1]; [7],4500 ng/mL
same,concentration at 1 h,[1]; [7],3900 ng/mL
same,concentration at […],"[1]; 100 mg/kg, Test 1, oral 100 mg/kg, 90 min",3600 ng/mL
same,concentration at 2 h,[1]; [7],2700 ng/mL
same,concentration at […],"[1]; 100 mg/kg, Test 1, oral 100 mg/kg, 150 min",2100 ng/mL
same,concentration at […],"[1]; 100 mg/kg, Test 3, oral 100 mg/kg, 15 min",6800 ng/mL
same,concentration at 0.5 h,[1]; [8],11500 ng/mL
same,concentration at 1 h,[1]; [8],6400 ng/mL
same,concentration at […],"[1]; 100 mg/kg, Test 3, oral 100 mg/kg, 90 min",4200 ng/mL
same,concentration at 2 h,[1]; [8],3300 ng/mL
same,concentration at […],"[1]; 100 mg/kg, Test 3, oral 100 mg/kg, 150 min",2500 ng/mL
same,concentration at 1 h,[2]; 60 min,3900 ng/mL
same,concentration at […],[2]; 150 min,800 ng/mL

# Reference: US4340539A, “Derivatives of 6-bromo penicillanic acid” (priority 1980, dated 1982)
